Our source for the binding signal values is publication PMC7819943, “Rice protein-binding microarrays: a tool to detect cis-acting elements near promoter regions in rice”.

Sequences of proteins named here, by UniProt entry; tags and fusion partners are left off.
UniProt Q0JBA9, entry or part of it: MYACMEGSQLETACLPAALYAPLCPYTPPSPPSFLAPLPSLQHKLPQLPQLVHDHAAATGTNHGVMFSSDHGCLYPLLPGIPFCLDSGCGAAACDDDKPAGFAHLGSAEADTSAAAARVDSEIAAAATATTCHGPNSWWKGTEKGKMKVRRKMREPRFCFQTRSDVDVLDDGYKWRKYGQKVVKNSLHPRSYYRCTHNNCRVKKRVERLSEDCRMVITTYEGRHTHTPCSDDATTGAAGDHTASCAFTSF

This is one part of the list.

The assay concerns the target OsWRKY34 (Oryza sativa, UniProt Q0JBA9 1-250). The assay can be described thus: protein-binding microarray (RPBM); PBS, 2% BSA, 51.3 ng/ul salmon testes DNA, 50 uM zinc acetate, 200 nM TF, 25 C, 1 h; high values mean tight binding. The note with it: protein: recombinant; tags: N-terminal polyhistidine and DsRed monomer fusion (pET32a); label: CyDye5-dUTP incorporated in the synthesized complementary strand; 3' TTTTT single-stranded linker to array surface; dsDNA, one strand shown. The method in brief: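 An Axon 4000B scanner gave the binding signal as per-feature fluorescence intensity in arbitrary units. This followed washing of a custom Agilent array that had been incubated for 1 h at 25 °C with 200 nM protein in PBS, 2% BSA, salmon testes DNA and 50 µM zinc acetate. The proteins were transcription factors fused at the N-terminus to polyhistidine and DsRed, expressed in E. coli BL21-CodonPlus and purified on Ni–NTA.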
Regarding “AGTCATTTCCCGCGCGTCAGACCTGACGTCAGACGACGATCGGAGTCACCTAGTGCAG”, the binding signal is 8980 fluorescence intensity (a.u.).
The figure for “GCCCGCAGTCTTTGTCGGGTTAGGATCCGTTTTGTGTTAACGGAGTCACCTAGTGCAG” is 8130 fluorescence intensity (a.u.).
The result for “TGTTACCAATGGAGCATATGATCATATTTCTTTCTTTATGCGGAGTCACCTAGTGCAG” reads 8420 fluorescence intensity (a.u.).
The result for “ATGCGCGCGGGACAGTGTGTGTGATGGGGTGAGCCAATTGCGGAGTCACCTAGTGCAG” reads 8310 fluorescence intensity (a.u.).
As for “TCCCTCTCGATCGCTTCCCGTGCTCTCGCTCTCTCGCTTGCGGAGTCACCTAGTGCAG”, the binding signal is 10100 fluorescence intensity (a.u.).
The figure for “TTCTTCTCTTTGATTAACTGTTTGGATTGTTATGTAGGTTCGGAGTCACCTAGTGCAG” is 9120 fluorescence intensity (a.u.); for “ATGTGGAGGTCAAGGTTCGCGTTGGCCGATCTGGTTGAGGCGGAGTCACCTAGTGCAG” it is 9830 fluorescence intensity (a.u.); for “GTCGGGGTATGGTCTCGGGTGGTCTGCCTATAAATACCAGCGGAGTCACCTAGTGCAG” it is 15200 fluorescence intensity (a.u.).
For the sequence “CCGTAATAAATTTATTTTTTGCTTCTTCAGTTTGTCCTAACGGAGTCACCTAGTGCAG”, the binding signal is 8500 fluorescence intensity (a.u.).
For “GGCCTCCTCGCATGGAACGCCGTCGTCTACTCGCTCCCATCGGAGTCACCTAGTGCAG”, the binding signal is 8630 fluorescence intensity (a.u.).
The figure for “CTTAAGGTTCTCTTGGTTTGAGCTTAGATTTATTGTCTTACGGAGTCACCTAGTGCAG” is 9420 fluorescence intensity (a.u.).
Take “GGAGGTGTGTGTGTGACAGTGTGTGAGTGTGTTGACAATACGGAGTCACCTAGTGCAG”: the binding signal was 10600 fluorescence intensity (a.u.).
As to “CACCCCGTCCGTTCCTCTTTGCCGGCCGACTAGTCTCAACCGGAGTCACCTAGTGCAG”, the binding signal was 8160 fluorescence intensity (a.u.).
The result for “TTGGAAAGCCGGTGGGGTGCGGGTGGCTCGTGGCGATCAGCGGAGTCACCTAGTGCAG” reads 8700 fluorescence intensity (a.u.); that for “GGTTTTTTCATCGAAGTTTATTTTTCAGCCTTTGCTTTTACGGAGTCACCTAGTGCAG”, 10800 fluorescence intensity (a.u.).
Regarding “GTCATTTTTTACCGCGGCTCCTCAGCTCGACCGACATGTGCGGAGTCACCTAGTGCAG”, the binding signal was 12700 fluorescence intensity (a.u.).
The figure for “CGTTCAAAACTTTGTTATAAGGGGCCATACAGGGGAAAAACGGAGTCACCTAGTGCAG” is 10200 fluorescence intensity (a.u.); for “CTATCCATTATGCACCCATCCATCCATCTATCCTCACCCACGGAGTCACCTAGTGCAG” it is 8350 fluorescence intensity (a.u.); for “GAACCGAACCCTGCAGTATACACACTTGTTCCATTAATTACGGAGTCACCTAGTGCAG” it is 11500 fluorescence intensity (a.u.).
Take “TTTTCTCTGAGTTTATAAACCTTGCAGGAAAACGATCCACCGGAGTCACCTAGTGCAG”: the binding signal is 8370 fluorescence intensity (a.u.).
In the case of “GGTAGACACATATACACTTTTATACTCGTGTTATACATATCGGAGTCACCTAGTGCAG”, the binding signal is 8460 fluorescence intensity (a.u.).
The figure for “ATTCACCGTCTGAATTTATTGTTTCTGTTTTGCTAGATCTCGGAGTCACCTAGTGCAG” is 8920 fluorescence intensity (a.u.).
The figure for “GATTGAGGCGGGGAGCGTTAGATGGGTAACTTTGCAAATGCGGAGTCACCTAGTGCAG” is 9330 fluorescence intensity (a.u.); for “GAGCCACACCAACAACAACAATCCAAACCCACGCACACACCGGAGTCACCTAGTGCAG” it is 8080 fluorescence intensity (a.u.); for “GACGTATTGTTCTATGCACGATGAGCTGACTTTGCTTTGACGGAGTCACCTAGTGCAG” it is 9210 fluorescence intensity (a.u.).
In the case of “AGGACTATAGCTTCGGCTTCACTTCTCCTATAGCTTAAATCGGAGTCACCTAGTGCAG”, the binding signal was 8560 fluorescence intensity (a.u.).
Take “TAAACACGCTCACCTCCCACTTATACCCTTCTGGTTGTTTCGGAGTCACCTAGTGCAG”: the binding signal is 9330 fluorescence intensity (a.u.).
The result for “GTTGTTGACCGTGCGTCGCTGGTTCAACGTTGATGGAGTTCGGAGTCACCTAGTGCAG” reads 11100 fluorescence intensity (a.u.); that for “ACTTATTGAGATATTTATCTCACGCGCCCGGCACGTGCTCCGGAGTCACCTAGTGCAG”, 9860 fluorescence intensity (a.u.).
In the case of “GCCATTAATCACCCACAGCTTCTCGTTGGAGAAATTTCCCCGGAGTCACCTAGTGCAG”, the binding signal was 8160 fluorescence intensity (a.u.).
The result for “AGAATCCTGTCTTTTTTATATTCCTACATTTCTTTCAACCCGGAGTCACCTAGTGCAG” reads 9180 fluorescence intensity (a.u.); that for “GTAATTCTGTTGTCATACGGTTTATTGTGTGGTTGCTGAACGGAGTCACCTAGTGCAG”, 9010 fluorescence intensity (a.u.); that for “CAACTGTTAGAAGAGAGGGAAGGGTGGGCCATATTAAGTGCGGAGTCACCTAGTGCAG”, 8450 fluorescence intensity (a.u.).
The figure for “TTTGGGGTTCAGCGGGCATTTGTTTTGATTGTTTCTTATTCGGAGTCACCTAGTGCAG” is 23400 fluorescence intensity (a.u.).
Regarding “ATCCATCCATCTATTCGCTTCCCTTTCCTTGCACCTCTGCCGGAGTCACCTAGTGCAG”, the binding signal was 9050 fluorescence intensity (a.u.).
As for “TTTTTCTATTCCTTAAATTATATATTTAATTCCGAATTTCCGGAGTCACCTAGTGCAG”, the binding signal is 9180 fluorescence intensity (a.u.).
The result for “ACCACATGCTCATCTTATTGTTTGTTTCGTTTCACCTCTACGGAGTCACCTAGTGCAG” reads 10700 fluorescence intensity (a.u.); that for “CGCTAGTTCTCTCTTGGTGTTCCTGGATGATGCCGTCGAGCGGAGTCACCTAGTGCAG”, 8670 fluorescence intensity (a.u.); that for “CCTTCCGTTCGACGCGACACGCGAGTCATTGCTGCCACCACGGAGTCACCTAGTGCAG”, 8110 fluorescence intensity (a.u.).
With “GGACCACCCCAACTCCTCTTATTAAGTACTCTCTTCGTTTCGGAGTCACCTAGTGCAG”, the binding signal was 8960 fluorescence intensity (a.u.).
The figure for “CATGCGGGGCGCGGGCGGCGGTGCAGGGCGGGGTGCGGCCCGGAGTCACCTAGTGCAG” is 8730 fluorescence intensity (a.u.).
The result for “GAGATGATCGCGCGCCACCACTCGCCGCCGCCGCTGGAATCGGAGTCACCTAGTGCAG” reads 8830 fluorescence intensity (a.u.).
